Data taken from ChEMBL document CHEMBL3988442, “University of Dundee, Small-Polar-MMV Screening Library” (2021).

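Whole-parasite assay of Trypanosoma brucei over 72 hours; the read-out is not stated. Tested at 10 µM. Higher reads as stronger inhibition (inferred: compounds with an IC50 in retests scored well above the rest). Values scatter widely below zero; nearly all retest evidence comes from the higher of the two concentrations used. Size under these conditions: about 2,700 compounds, about 14 of them at 50% or above in at least one test.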

The filed quantity is “Percent Effect” (%).
The controls that fix the scale are not given in the record; negative values are as filed.
This is an unselected part of the compounds tested.

COc1cccc2cc(CNC(=O)N3CCS(=O)(=O)CC3)oc12 read -9.155%. CCC(O)CN1CCN(C(=O)Cc2ccccc2Cl)CC1 (stereo unspecified) gave -65.05%. CCc1nc(CN(C)C2CCN(CCOc3ccccc3)C2)no1 (stereo unspecified) gave -45.05%. With CCn1cnnc1CNC(=O)N1CCN(Cc2ccco2)CC1 the screen gave -59.15%. Result for O=C(NCCOc1ccccc1)Nc1cc(C(F)(F)F)c[nH]c1=O was -78.46%. CCn1ccnc1CN1CCCN(C(=O)c2cnc(C)cn2)CC1 gave -67%. For Cc1nn(C)c(C)c1C1CCCN1C(=O)CCCc1ccccn1 (stereo unspecified) the result was -45.63%. Cc1nc(-c2ccc(Cl)s2)sc1C(=O)NC(C)(C)C(N)=O gave -106.1%.

CCOc1ccnc(N2CCN(C(=O)c3c(CC)noc3C)CC2)n1 read -9.276%. CC1CN(C(=O)CN(Cc2ccccc2Cl)C2CCCC2)CCO1 (stereo unspecified) gave -58.32%. CC(=O)N1CCCC1C(=O)NCCOc1ccc(C(C)C)cc1 (stereo unspecified) read -50.9%. CC(=O)N1CCCN(C(=O)c2ccc(Cn3ccccc3=O)o2)CC1 read -93.45%. With CC(C)(C)c1n[nH]c(C2CN(C(=O)CCc3cccs3)CCO2)n1 (stereo unspecified) the screen gave -59.78%. Cc1noc(C)c1C(=O)NCc1ccc(N2CCC(C)CC2)nc1 read -31.9%. With O=C(CCN1CCOC(CNc2cccnn2)C1)NC1CCCCC1 (stereo unspecified) the screen gave -40.92%. For Cc1ccc(N2CCCC(NCc3cc(C)on3)C2)nn1 (stereo unspecified) the result was -32.09%.

Cc1nc(CN(C)C2CCN(CCc3cccs3)C2)no1 (stereo unspecified) read -41.36%. COc1c(C2CCCN2Cc2nc(C)c(C)o2)c(C)nn1C (stereo unspecified) gave -17.27%. For CCCc1n[nH]c(C2CN(CCc3cccs3)CCO2)n1 (stereo unspecified) the result was -31.45%. For Cc1cccc(OCC(O)CN2CCC(Cn3cccn3)CC2)c1 (stereo unspecified) the result was 12.51%. With CC(C)Cc1nc(CN2CCN(CC(O)c3ccccc3)CC2)no1 (stereo unspecified) the screen gave -33.37%. With CCN1CCN(c2ccc(CNC(=O)c3cc(C)on3)cn2)CC1 the screen gave -11.45%. COc1cccc(CNCC2CCN(CC(C)O)CC2)c1OC (stereo unspecified) read -41.05%. Result for O=C1C(NS(=O)(=O)c2cccc(F)c2)CCN1Cc1ccccc1 (stereo unspecified) was -41.84%.

For O=C(Cc1ccccn1)N1CCN(C(=O)CC2CCCC2)CC1 the result was -49.88%. With Cc1cnn(CCNCc2nnc(-c3ccccc3)o2)c1 the screen gave -61.89%. With COCc1nc(C(=O)N2CCCC(n3ccnc3C(C)C)C2)cs1 (stereo unspecified) the screen gave -65.47%. CC(=O)Nc1nc(C(=O)NCc2ccc(N3CCCCC3)cc2)cs1 gave -17.93%. For Cc1nn(C)c(N2CCOCC2)c1CNCc1ccc2c(c1)OCO2 the result was -40.3%. CN(Cc1noc(C2CC2)n1)C1CCN(Cc2ccc(F)c(F)c2)C1 (stereo unspecified) read -21.44%. With NC(=O)CS(=O)(=O)Cc1cc(Cl)c2c(c1)OCCCO2 the screen gave -45.55%. For Cc1cnn(CC2CCCN2C(=O)c2cc3ccccc3c(=O)[nH]2)c1 (stereo unspecified) the result was -191%.

Result for COc1ccc(OC)c(CNCc2c(C(C)C)nn(C)c2N(C)C)c1 was -53.72%. CN(C(=O)Cc1ccc(F)cc1)C1CCN(c2ccccn2)CC1 read -13.55%. For Cc1cc(CN2CCN(CC(O)c3ccc4c(c3)OCO4)CC2)no1 (stereo unspecified) the result was -71.33%. O=C(CN1CCOC(Cn2cccn2)C1)NCc1ccco1 (stereo unspecified) read -52.57%. Result for Cc1ccc(OCc2nc(CNCC3CN(C)CCO3)cs2)cc1 (stereo unspecified) was 77.03%. c1ncc2c(n1)CN(Cc1nc(-c3ccc4c(c3)OCO4)no1)CC2 gave -43.83%. Cc1nc(-c2ccco2)ccc1C(=O)N1CCn2c(C)nnc2C1 read -3.818%.

For reference, 3 entries once more:

- Cc1ccc(OCc2nc(CNCC3CN(C)CCO3)cs2)cc1 (stereo unspecified) : 77.03%
- COc1cccc2cc(CNC(=O)N3CCS(=O)(=O)CC3)oc12 : -9.155%
- CN(C(=O)Cc1ccc(F)cc1)C1CCN(c2ccccn2)CC1 : -13.55%